Data taken from PubChem BioAssay AID1159506, deposited by NCATS (2015).

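Genome-wide siRNA knockdown in TC32 Ewing sarcoma cells, comparing luciferase light from an NR0B1-promoter reporter with a CMV-promoter reporter 48 hours after transfection. Each siRNA was applied at 20 nM. A z-score of the log NR0B1-over-CMV signal, less the median of siRNAs with the same seed; more negative means a stronger specific loss of the NR0B1 reporter.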

The strongest results of the screen are mostly left out here. Sequences are the guide (antisense) strand, without overhang.

siRNA,gene,seed-corrected z-score
UCUCGAUUAUCACCUAUAC,LANCL1,-0.007546
UAUUGAUUUCUUAUAGGAG,FLVCR1,-0.1864
UUAUCCUAUGUUGAGAAGG,ZNF257,-0.09365
UUUGUAACAAAAACCACGG,CECR5,0.5501
UGUAGUAAGAUGUGAAAGC,LOC730110,0.8034
AAAGAUUCCCAAAAUAUAC,CEBPB,0.7008
UACGGAUUCCGGAGAAGUC,ADAM10,-0.335
UCUGAUCAAAAGAACAACG,GPC5,-0.3249
UAAGUGUCCGUAGUUUUGC,HOXD3,0.1327
AAAGUCCCGAGCACUGUUC,CYP2C18,2.256
UCGGAUACCAAUAUACUUC,HTRA1,-0.2917
UAAGGCGUACGUCAACGCA,BOLA2,0.3738
UUAAGUACUCAGCAAGUUC,UFL1,-1.261
AUAGGUUCGCAUGCUGUCC,TJP3,-0.101
UCCCUGGAGAUUGAUAUGC,NLRC3,0.3048
AGAAUGUAUCUCAUGGACC,LOC390846,-0.4945
AUUUGUAAAAGUAGGACAG,MRPS24,0.8969
AAGGUCUUAAGCCUAGAGG,MRPL4,-0.2932
AUAUCUAGCAAAGCUAUUG,MFSD14A,-0.4286
UUAUGAAAAAGCACAGGUG,CCDC112,-0.4488
AUGCAGACAGGUGCAAUGG,MSMP,0.8262
UAGGGUGAGAGGCUAUGGU,RASA4,0.7106
UAAAGGCCUUGAAUCGUGC,OR52A5,1.632
AGCACUGCAACAAUUAGGC,TAS2R16,0.04379
ACCUUAGUCACCAUGAUGG,PDLIM2,0.8496
UCCAGUGAAACGGUGAGUG,C7orf43,0.5786
UAUUUGAUGGAGAGUAAGG,ZNF383,0.1384
UGAGUCUUCAUCAUGGUGU,IRAK2,-0.2205
UGCUCAAACAUGACCACGU,UAP1L1,0.5529
UACUUUGUCCGAGAAGACA,CLDN10,-1.044
UUAUUGUUCUCACUGCUUG,ITGAD,1.026
AAACUCUUGAUGUCGAUAG,PSPC1,-0.2694
AUACGUACAACUGAGAGUG,PTPRH,1.493
UCUAGGAUCACAGUACCUG,MED11,0.4398
UCCGAGAUCAUCACUAGGG,TRPV2,-0.1836
UCUAAGAAAGAUAAGUUGC,OR5AS1,0.1947
UUCAUAACAGGGUGCGUCC,DRICH1,0.2877
AUGUUUUCAAGUUGAGCUC,PTCD1,-1.433
UCAGUGAAGAUGCUUGCUC,PYROXD2,0.603
UGAAUCACAAAAUCCAGUC,LGSN,0.2171
UCGGUUGCAGGUGUUAAGG,GRHPR,-0.7956
CGAGUAACAGGAGAUACGG,LOC646034,-0.1726
UGGAGGACCGAGAUGUGCU,MAPK8IP2,0.7725
ACAGUUGUAUCCAAUUUCC,STK4,-0.1294
AAGAAAUAGAUGACCAUCC,MMD2,1.477
AUGAGAUCCACUACGGACC,R3HDML,0.4148

The first 4 entries again:

siRNA,gene,seed-corrected z-score
UCUCGAUUAUCACCUAUAC,LANCL1,-0.007546
UAUUGAUUUCUUAUAGGAG,FLVCR1,-0.1864
UUAUCCUAUGUUGAGAAGG,ZNF257,-0.09365
UUUGUAACAAAAACCACGG,CECR5,0.5501